Results are given in words; binding and its absence hold for the method and conditions named. Binding seen in cells or lysates may run through a third protein. Some entries that bind do so weakly or less than the wild type.
Experiments:
[1] = target: FLAG-tagged SIRT1 deletion mutant Δ3 (deletion in 143-213 a.a) (UniProt Q96EB6); experiment: co-IP; HEK293T cells transfected with FLAG-tagged bait (KAP1, SIRT1 or SIRT1 deletion mutants; GAL4-tagged KAP1 co-transfected where named), lysed, immunoprecipitated with anti-FLAG antibody, western blot
[2] = target: FLAG-tagged SIRT1 deletion mutant Δ6 (deletion in 378-458 a.a) (UniProt Q96EB6); experiment: as above
[3] = target: FLAG-tagged full-length (FL) SIRT1 (UniProt Q96EB6); experiment: as above
[4] = target: p53-binding protein 1 (53BP1), endogenous (human (endogenous in HEK293T)) (UniProt Q12888); experiment: co-IP; FLAG-tagged WT-KAP1 or 4KR in KAP1 depleted HEK293T cells, harvested 1 hour following 10Gy-IR (with or without IR), anti-53BP1 immunoprecipitation, immunoblotting

Amino acid sequences for entries named in this document (tags omitted). A change or cut given only in a name is not applied to a line headed by its entry. Chains listed by the source or under a name are the forms on record and can include a tag or linker.
UniProt Q96EB6: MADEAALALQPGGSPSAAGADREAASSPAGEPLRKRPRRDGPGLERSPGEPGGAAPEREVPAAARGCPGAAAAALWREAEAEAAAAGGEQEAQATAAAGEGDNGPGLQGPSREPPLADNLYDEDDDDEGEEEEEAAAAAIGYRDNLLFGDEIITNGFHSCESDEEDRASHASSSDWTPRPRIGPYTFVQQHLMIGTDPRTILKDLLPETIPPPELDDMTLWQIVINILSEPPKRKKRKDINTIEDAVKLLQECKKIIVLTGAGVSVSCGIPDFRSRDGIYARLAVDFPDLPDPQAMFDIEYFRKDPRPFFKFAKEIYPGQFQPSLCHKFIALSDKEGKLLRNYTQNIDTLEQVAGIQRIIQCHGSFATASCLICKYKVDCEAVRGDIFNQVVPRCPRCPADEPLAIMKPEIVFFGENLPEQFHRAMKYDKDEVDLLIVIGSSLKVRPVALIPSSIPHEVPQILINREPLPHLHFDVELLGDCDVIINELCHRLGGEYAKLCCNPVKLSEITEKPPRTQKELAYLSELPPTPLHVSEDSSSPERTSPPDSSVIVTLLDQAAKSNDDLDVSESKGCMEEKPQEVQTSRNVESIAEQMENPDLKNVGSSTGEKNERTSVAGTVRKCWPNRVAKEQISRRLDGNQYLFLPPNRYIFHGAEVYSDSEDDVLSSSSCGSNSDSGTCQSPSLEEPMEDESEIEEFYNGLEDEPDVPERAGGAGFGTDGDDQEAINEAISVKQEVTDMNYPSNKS
FLAG-tagged SIRT1 deletion mutant Δ3 (deletion in 143-213 a.a) (Q96EB6, form named): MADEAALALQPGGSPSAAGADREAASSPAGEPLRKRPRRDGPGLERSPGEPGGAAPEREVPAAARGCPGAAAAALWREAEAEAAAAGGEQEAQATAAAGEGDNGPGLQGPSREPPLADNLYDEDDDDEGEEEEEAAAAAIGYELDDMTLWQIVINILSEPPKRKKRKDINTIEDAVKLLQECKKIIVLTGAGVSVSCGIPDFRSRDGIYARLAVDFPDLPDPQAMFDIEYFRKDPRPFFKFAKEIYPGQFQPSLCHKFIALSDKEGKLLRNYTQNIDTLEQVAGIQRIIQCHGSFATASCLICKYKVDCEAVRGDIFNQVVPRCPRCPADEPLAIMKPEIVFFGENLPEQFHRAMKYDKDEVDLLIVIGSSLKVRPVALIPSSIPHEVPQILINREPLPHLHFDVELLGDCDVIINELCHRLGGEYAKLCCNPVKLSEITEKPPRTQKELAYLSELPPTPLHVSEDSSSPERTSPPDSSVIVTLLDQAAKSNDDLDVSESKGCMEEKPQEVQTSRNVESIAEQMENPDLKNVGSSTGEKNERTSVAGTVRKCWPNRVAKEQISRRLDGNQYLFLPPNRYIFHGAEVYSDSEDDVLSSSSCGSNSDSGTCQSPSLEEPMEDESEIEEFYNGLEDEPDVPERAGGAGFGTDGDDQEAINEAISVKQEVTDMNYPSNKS
FLAG-tagged SIRT1 deletion mutant Δ6 (deletion in 378-458 a.a) (Q96EB6, form named): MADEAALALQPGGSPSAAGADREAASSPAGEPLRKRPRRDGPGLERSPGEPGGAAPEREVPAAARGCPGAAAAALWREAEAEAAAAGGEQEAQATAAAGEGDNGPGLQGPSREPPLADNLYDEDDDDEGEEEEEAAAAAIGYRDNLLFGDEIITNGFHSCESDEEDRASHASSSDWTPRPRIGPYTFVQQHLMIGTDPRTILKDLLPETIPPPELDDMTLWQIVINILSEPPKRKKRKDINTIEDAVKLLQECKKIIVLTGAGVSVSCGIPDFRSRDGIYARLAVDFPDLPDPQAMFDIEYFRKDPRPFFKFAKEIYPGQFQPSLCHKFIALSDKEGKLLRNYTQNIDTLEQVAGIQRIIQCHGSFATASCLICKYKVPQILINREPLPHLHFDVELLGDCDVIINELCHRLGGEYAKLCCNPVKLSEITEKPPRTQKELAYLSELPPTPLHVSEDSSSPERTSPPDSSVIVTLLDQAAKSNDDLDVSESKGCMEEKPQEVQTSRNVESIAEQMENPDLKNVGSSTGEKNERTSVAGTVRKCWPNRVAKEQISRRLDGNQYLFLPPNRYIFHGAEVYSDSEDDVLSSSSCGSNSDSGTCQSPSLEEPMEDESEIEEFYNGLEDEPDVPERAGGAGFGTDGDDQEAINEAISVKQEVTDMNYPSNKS
UniProt Q12888: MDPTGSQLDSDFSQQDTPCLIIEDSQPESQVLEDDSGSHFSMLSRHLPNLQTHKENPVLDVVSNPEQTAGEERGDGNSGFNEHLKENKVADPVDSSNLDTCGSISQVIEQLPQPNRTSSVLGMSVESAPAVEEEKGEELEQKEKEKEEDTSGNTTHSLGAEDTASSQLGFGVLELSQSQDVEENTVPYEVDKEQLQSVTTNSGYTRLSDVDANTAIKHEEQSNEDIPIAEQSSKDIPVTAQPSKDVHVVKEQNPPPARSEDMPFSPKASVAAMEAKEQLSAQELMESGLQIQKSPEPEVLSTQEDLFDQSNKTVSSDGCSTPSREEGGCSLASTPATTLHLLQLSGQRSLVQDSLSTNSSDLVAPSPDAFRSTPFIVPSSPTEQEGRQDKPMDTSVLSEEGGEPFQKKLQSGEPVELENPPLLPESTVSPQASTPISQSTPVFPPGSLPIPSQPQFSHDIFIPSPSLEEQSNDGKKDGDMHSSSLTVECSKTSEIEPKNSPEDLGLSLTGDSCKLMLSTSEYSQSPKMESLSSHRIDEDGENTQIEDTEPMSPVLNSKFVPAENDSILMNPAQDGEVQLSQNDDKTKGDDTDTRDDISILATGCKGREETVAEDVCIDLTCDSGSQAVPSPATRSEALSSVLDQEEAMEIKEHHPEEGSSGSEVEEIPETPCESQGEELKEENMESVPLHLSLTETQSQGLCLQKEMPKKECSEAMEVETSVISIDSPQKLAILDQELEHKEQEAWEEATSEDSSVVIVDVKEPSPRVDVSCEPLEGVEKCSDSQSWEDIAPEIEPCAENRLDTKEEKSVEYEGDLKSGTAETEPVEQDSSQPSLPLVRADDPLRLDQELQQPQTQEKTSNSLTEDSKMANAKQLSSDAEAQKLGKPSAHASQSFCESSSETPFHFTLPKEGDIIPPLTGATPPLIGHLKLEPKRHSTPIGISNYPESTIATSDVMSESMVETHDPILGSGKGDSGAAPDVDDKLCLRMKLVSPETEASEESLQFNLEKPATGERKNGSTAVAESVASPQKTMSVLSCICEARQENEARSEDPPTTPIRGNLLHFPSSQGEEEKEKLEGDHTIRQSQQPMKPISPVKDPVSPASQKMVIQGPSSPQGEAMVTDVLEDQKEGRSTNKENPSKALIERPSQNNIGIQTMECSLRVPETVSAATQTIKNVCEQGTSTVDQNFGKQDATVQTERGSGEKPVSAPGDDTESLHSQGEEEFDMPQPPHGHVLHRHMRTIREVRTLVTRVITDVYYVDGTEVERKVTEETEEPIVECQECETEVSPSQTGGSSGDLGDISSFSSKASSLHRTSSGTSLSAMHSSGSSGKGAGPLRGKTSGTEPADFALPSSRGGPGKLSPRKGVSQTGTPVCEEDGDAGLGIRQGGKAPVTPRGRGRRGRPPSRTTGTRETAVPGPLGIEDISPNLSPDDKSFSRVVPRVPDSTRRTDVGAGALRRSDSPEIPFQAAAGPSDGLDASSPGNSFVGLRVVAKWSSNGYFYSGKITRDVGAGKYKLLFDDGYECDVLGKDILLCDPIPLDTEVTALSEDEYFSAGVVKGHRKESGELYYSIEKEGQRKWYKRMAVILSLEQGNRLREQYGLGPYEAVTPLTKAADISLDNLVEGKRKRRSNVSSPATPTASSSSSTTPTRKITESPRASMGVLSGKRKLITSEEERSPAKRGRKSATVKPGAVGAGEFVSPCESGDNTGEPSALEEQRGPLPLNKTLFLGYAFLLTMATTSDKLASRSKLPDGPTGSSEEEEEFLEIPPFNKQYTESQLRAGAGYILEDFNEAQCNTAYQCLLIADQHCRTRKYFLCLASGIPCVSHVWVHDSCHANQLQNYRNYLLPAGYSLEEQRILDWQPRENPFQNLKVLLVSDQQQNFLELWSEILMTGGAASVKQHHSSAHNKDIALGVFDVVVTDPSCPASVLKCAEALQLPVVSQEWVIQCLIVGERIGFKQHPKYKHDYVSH
UniProt Q13263: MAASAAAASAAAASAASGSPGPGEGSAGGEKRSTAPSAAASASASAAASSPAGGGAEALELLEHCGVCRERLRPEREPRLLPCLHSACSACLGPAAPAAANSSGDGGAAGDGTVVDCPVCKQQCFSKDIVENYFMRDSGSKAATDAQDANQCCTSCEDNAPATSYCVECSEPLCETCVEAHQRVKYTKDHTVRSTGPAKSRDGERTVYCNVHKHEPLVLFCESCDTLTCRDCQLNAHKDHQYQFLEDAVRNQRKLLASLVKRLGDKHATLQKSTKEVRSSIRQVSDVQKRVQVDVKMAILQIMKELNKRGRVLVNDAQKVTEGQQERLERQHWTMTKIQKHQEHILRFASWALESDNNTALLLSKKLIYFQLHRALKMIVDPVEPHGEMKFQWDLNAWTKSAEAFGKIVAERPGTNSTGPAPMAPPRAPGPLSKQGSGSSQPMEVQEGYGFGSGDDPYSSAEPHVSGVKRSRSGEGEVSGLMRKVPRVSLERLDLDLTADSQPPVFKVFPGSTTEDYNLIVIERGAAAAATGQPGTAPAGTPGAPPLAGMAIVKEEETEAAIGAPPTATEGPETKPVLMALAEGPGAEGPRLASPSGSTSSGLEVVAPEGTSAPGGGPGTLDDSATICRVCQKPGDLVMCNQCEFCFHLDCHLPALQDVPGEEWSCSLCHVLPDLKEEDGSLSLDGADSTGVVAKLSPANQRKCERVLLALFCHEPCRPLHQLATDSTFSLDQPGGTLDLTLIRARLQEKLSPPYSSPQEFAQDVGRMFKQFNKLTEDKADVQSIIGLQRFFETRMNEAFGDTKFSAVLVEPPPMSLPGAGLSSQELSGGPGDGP

binding [1]	binding [2]	binding [3]	binding [4]	Substance
no binding	no binding	binds	–	Krüppel associated box (KRAB)-associated protein 1 (KAP1), endogenous (from UniProt Q13263 1-835)
–	–	binds	–	GAL4-tagged full-length (FL) KAP1 (from UniProt Q13263 1-835)
–	–	–	binds	FLAG-tagged KAP1 (from UniProt Q13263 1-835)
